Source: patent publication US10662451B2, “Microorganisms and methods for the coproduction 1,4-butanediol and gamma-butyrolactone” (priority 2009, dated 2020)

Tested on: C. acetobutylicum ATCC 824
Conditions: Schaedler broth with 10 mM 4-HB, anaerobic, 30° C.

## OCCCCO [Gene 14-BDO, 1,4-butanediol]
1 day
  14-BDO concentration: 0.1 mM
2 days
  14-BDO concentration: 0.9 mM
7 days
  14-BDO concentration: 1.5 mM

Where two headings read alike, the source gives them in different places.
